Source: PMC6896144
Results are given in words; binding and its absence hold for the method and conditions named. In cells and extracts the contact can be indirect. Sequences can lack the tags named with a protein.

Target: S381A-FLAG (UniProt P46937)
Test: co-IP; HCT116 co-transfected with DUSP10-V5 and a YAP-FLAG plasmid. Cells were cross-linked with 2 mM DSP for 30 min, then lysed in RIPA buffer. Anti-FLAG (or normal IgG) and protein A/G agarose at 4 °C, then immunoblot.

B1: DUSP10-WT-V5 (enzyme, UniProt Q9Y6W6 1-482)
chain: MPPSPLDDRVVVALSRPVRPQDLNLCLDSSYLGSANPGSNSHPPVIATTVVSLKAANLTYMPSSSGSARSLNCGCSSASCCTVATYDKDNQAQTQAIAAGTTTTAIGTSTTCPANQMVNNNENTGSLSPSSGVGSPVSGTPKQLASIKIIYPNDLAKKMTKCSKSHLPSQGPVIIDCRPFMEYNKSHIQGAVHINCADKISRRRLQQGKITVLDLISCREGKDSFKRIFSKEIIVYDENTNEPSRVMPSQPLHIVLESLKREGKEPLVLKGGLSSFKQNHENLCDNSLQLQECREVGGGASAASSLLPQPIPTTPDIENAELTPILPFLFLGNEQDAQDLDTMQRLNIGYVINVTTHLPLYHYEKGLFNYKRLPATDSNKQNLRQYFEEAFEFIEEAHQCGKGLLIHCQAGVSRSATIVIAYLMKHTRMTMTDAYKFVKGKRPIISPNLNFMGQLLEFEEDLNNGVTPRILTPKLMGVETVV
binding: no binding
